Data on one substance can be found in publication PMC9360436.

By UniProt entry, the sequences of proteins in these tests, tags left out.
UniProt P63010: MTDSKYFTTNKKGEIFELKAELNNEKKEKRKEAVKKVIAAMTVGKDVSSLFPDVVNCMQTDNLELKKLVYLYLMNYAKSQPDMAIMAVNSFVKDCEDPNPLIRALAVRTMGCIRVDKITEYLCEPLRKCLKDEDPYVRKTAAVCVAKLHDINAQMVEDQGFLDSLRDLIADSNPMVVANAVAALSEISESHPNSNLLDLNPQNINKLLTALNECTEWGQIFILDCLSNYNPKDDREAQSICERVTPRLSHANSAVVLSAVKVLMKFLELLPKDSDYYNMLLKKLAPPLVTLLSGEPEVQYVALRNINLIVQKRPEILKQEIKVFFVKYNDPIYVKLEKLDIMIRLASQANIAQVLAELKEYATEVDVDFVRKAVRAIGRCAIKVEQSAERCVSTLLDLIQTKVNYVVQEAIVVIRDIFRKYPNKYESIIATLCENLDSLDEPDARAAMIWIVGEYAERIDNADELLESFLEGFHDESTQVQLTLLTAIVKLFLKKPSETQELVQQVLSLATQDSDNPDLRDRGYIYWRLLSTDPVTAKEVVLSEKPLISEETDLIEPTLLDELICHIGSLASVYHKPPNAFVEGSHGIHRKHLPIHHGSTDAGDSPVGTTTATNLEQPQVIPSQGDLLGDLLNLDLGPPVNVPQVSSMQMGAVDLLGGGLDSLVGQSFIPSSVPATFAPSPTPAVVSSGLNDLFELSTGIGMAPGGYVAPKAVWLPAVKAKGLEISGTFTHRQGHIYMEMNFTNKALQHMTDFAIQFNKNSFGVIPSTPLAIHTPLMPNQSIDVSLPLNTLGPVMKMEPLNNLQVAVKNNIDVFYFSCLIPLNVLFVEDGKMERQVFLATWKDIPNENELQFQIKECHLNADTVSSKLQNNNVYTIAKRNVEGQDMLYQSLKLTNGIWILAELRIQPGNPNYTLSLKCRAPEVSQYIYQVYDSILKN
UniProt P49407: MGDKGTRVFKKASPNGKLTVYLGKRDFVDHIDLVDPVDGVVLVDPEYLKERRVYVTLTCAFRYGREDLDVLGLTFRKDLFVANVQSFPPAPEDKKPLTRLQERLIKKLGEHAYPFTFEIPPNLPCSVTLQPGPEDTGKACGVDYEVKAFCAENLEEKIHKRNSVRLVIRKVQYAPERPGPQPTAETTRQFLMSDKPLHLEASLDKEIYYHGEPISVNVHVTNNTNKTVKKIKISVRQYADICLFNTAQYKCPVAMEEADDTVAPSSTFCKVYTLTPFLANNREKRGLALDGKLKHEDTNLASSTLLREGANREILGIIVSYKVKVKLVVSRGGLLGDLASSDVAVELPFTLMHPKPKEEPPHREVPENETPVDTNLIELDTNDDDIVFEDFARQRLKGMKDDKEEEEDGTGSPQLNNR

Results are given in words; binding and its absence hold for the method and conditions named. Binding seen in cells or lysates may run through a third protein. Some entries that bind do so weakly or less than the wild type.

Assay [1] has as its target β2-adaptin-YFP (UniProt P63010). Description: FRET or BRET; BRET in HEK-293 cells: βarr1-RlucII and β2-adaptin-YFP with rising amounts (0 to 3 µg DNA) of Ib30, no receptor transfected, no ligand.
Assay [2] has the same target. Description: FRET or BRET; BRET in HEK-293 cells: βarr1-RlucII and β2-adaptin-YFP with V2R^WT or V2R^T360A and Ib-CTL or Ib30; AVP doses, 45 min; lower response for V2R^T360A with Ib-CTL, raised by Ib30.

“βarr1-RlucII (from UniProt P49407 1-418)”: the binding entry with β2-adaptin-YFP [1] and with β2-adaptin-YFP [2] was “binds” throughout.
